Source: patent publication US20040009486A1, “Compositions and methods utilizing DNA polymerases” (priority 1999, published 2004)
Some entries share one result that the patent states for a list of compounds.

System: pBL25C and Temp-A, Temp-T, Temp-C, or Temp-G
Assay: Rhodamine labeled ddNTP incorporation, TAMRA- and R110-ddNTPs (FIG. 16)
Format: biochemical
Experimental: These experiments were performed using 1 unit of enzyme, 15 nM primer:template (pBL25C and Temp-A, Temp-T, Temp-C, or Temp-G in four separate reactions), and 50 nM dye-ddNTP (TAMRA- or R110-labeled). The reactions were incubated at 60° C. for 10 minutes and then quenched with ice-cold 0.2 M EDTA (final concentration). The products were purified from unincorporated dye-labeled ddNTPs and analyzed as described above.
Relative incorporation of rhodamine labeled-ddNTPs by the JDF-3 P410L/A485T and Taq F667Y mutants was determined. We used both TAMRA- and R 110-labeled ddNTPs, and the amount of incorporated dye-ddNTPs was measured in fluorescense units. These experiments were performed using pBL25C as the primer, and Temp-A, Temp-T, Temp-C, or Temp-G as the complementary template in four separate reactions. The only difference between these four primer:template systems is the SNP site, thereby eliminating the possibility that primer:template sequence has an effect on dye-ddNTP incorporation. […] Gardner and Jack had also observed variation in the incorporation of ribonucleotides by the A488L mutant (equivalent to JDF-3 A485) of Vent DNA polymerase (from archaeon Thermococcus litoralis)^15.
We performed similar rhodamine labeled-ddNTP incorporation experiments using the same number of units of Taq F667Y.

Taq F667Y: ThermoSequenase, Taq F667Y mutant DNA polymerase from Amersham Pharmacia Biotech
base selectivity: < 3 fold
